Laboratory results reported in the supplement of paper PMC8728848.
The other results are listed elsewhere or left out.

Legend:
Assay in all cases: glycan array binding signal (z-score within array); higher = stronger binding
Conditions in all cases: glycan notation: IUPAC condensed, linker removed
Gal(b1-4)Glc = target: Gal(b1-4)Glc
Outline: (§1)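 From the Consortium for Functional Glycomics database, 3228 arrays were curated, keeping only those whose protein sequence was available. Binding is given as a within-array Z-score averaged across arrays sharing a protein sequence and across linkers. Negative Z-scores can be read as non-binding.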

Gal(b1-4)Glc6S = target: Gal(b1-4)Glc6S
Outline: as §1

Gal(b1-4)GlcNAc = target: Gal(b1-4)GlcNAc
Outline: as §1

[1] = target: Gal(b1-4)GlcNAc(a1-6)Gal(b1-4)GlcNAc
Outline: as §1

Gal(b1-4)GlcNAc(b1-2)Man = target: Gal(b1-4)GlcNAc(b1-2)Man
Outline: as §1

[2] = target: Gal(b1-4)GlcNAc(b1-2)Man(a1-3)Man(b1-4)GlcNAc(b1-4)GlcNAc
Outline: as §1

[3] = target: Gal(b1-4)GlcNAc(b1-2)Man(a1-3)[Gal(b1-4)GlcNAc(b1-2)Man(a1-6)]Man(b1-4)GlcNAc(b1-4)GlcNAc
Outline: as §1

[4] = target: Gal(b1-4)GlcNAc(b1-2)Man(a1-3)[Gal(b1-4)GlcNAc(b1-2)Man(a1-6)]Man(b1-4)GlcNAc(b1-4)[Fuc(a1-6)]GlcNAc
Outline: as §1

[5] = target: Gal(b1-4)GlcNAc(b1-2)Man(a1-3)[Gal(b1-4)GlcNAc(b1-2)Man(a1-6)][Gal(b1-4)GlcNAc(b1-4)]Man(b1-4)GlcNAc(b1-4)[Fuc(a1-6)]GlcNAc
Outline: as §1

[6] = target: Gal(b1-4)GlcNAc(b1-2)Man(a1-3)[Gal(b1-4)GlcNAc(b1-2)Man(a1-6)][GlcNAc(b1-4)]Man(b1-4)GlcNAc(b1-4)[Fuc(a1-6)]GlcNAc
Outline: as §1

[7] = target: Gal(b1-4)GlcNAc(b1-2)Man(a1-3)[GlcNAc(b1-2)Man(a1-6)]Man(b1-4)GlcNAc(b1-4)GlcNAc
Outline: as §1

[8] = target: Gal(b1-4)GlcNAc(b1-2)Man(a1-3)[GlcNAc(b1-4)][Gal(b1-4)GlcNAc(b1-2)Man(a1-6)]Man(b1-4)GlcNAc(b1-4)GlcNAc
Outline: as §1

[9] = target: Gal(b1-4)GlcNAc(b1-2)Man(a1-3)[Man(a1-6)]Man(b1-4)GlcNAc(b1-4)GlcNAc
Outline: as §1

[10] = target: Gal(b1-4)GlcNAc(b1-2)Man(a1-6)Man(b1-4)GlcNAc(b1-4)GlcNAc
Outline: as §1

[11] = target: Gal(b1-4)GlcNAc(b1-2)Man(a1-6)[GlcNAc(b1-2)Man(a1-3)]Man(b1-4)GlcNAc(b1-4)GlcNAc
Outline: as §1

[12] = target: Gal(b1-4)GlcNAc(b1-2)Man(a1-6)[Man(a1-3)]Man(b1-4)GlcNAc(b1-4)GlcNAc
Outline: as §1

[13] = target: Gal(b1-4)GlcNAc(b1-2)[Gal(b1-4)GlcNAc(b1-4)]Man(a1-3)[Gal(b1-4)GlcNAc(b1-2)Man(a1-6)]Man(b1-4)GlcNAc(b1-4)GlcNAc
Outline: as §1

[14] = target: Gal(b1-4)GlcNAc(b1-2)[Gal(b1-4)GlcNAc(b1-4)]Man(a1-3)[Gal(b1-4)GlcNAc(b1-2)[Gal(b1-4)GlcNAc(b1-6)]Man(a1-6)]Man(b1-4)GlcNAc(b1-4)GlcNAc
Outline: as §1

[15] = target: Gal(b1-4)GlcNAc(b1-2)[Gal(b1-4)GlcNAc(b1-4)]Man(a1-3)[GlcNAc(b1-4)][Gal(b1-4)GlcNAc(b1-2)Man(a1-6)]Man(b1-4)GlcNAc(b1-4)GlcNAc
Outline: as §1

[16] = target: Gal(b1-4)GlcNAc(b1-2)[Gal(b1-4)GlcNAc(b1-4)]Man(a1-3)[GlcNAc(b1-4)][Gal(b1-4)GlcNAc(b1-2)[Gal(b1-4)GlcNAc(b1-6)]Man(a1-6)]Man(b1-4)GlcNAc(b1-4)GlcNAc
Outline: as §1

[17] = target: Gal(b1-4)GlcNAc(b1-2)[Gal(b1-4)GlcNAc(b1-6)]Man(a1-6)[Gal(b1-4)GlcNAc(b1-2)Man(a1-3)]Man(b1-4)GlcNAc(b1-4)GlcNAc
Outline: as §1

[18] = target: Gal(b1-4)GlcNAc(b1-2)[Gal(b1-4)GlcNAc(b1-6)]Man(a1-6)[Gal(b1-4)GlcNAc(b1-2)Man(a1-3)]Man(b1-4)GlcNAc(b1-4)[Fuc(a1-6)]GlcNAc
Outline: as §1

[19] = target: Gal(b1-4)GlcNAc(b1-2)[Gal(b1-4)GlcNAc(b1-6)]Man(a1-6)[GlcNAc(b1-4)][Gal(b1-4)GlcNAc(b1-2)Man(a1-3)]Man(b1-4)GlcNAc(b1-4)GlcNAc
Outline: as §1

[20] = target: Gal(b1-4)GlcNAc(b1-2)[Gal(b1-4)GlcNAc(b1-6)]Man(a1-6)[GlcNAc(b1-4)][Gal(b1-4)GlcNAc(b1-2)[Gal(b1-4)GlcNAc(b1-4)]Man(a1-3)]Man(b1-4)GlcNAc(b1-4)[Fuc(a1-6)]GlcNAc
Outline: as §1

[21] = target: Gal(b1-4)GlcNAc(b1-3)Gal(b1-3)GalNAc
Outline: as §1

[22] = target: Gal(b1-4)GlcNAc(b1-3)Gal(b1-3)GlcNAc
Outline: as §1

[23] = target: Gal(b1-4)GlcNAc(b1-3)Gal(b1-4)Glc
Outline: as §1

[24] = target: Gal(b1-4)GlcNAc(b1-3)Gal(b1-4)GlcNAc
Outline: as §1

[25] = target: Gal(b1-4)GlcNAc(b1-3)Gal(b1-4)GlcNAc(b1-2)Man(a1-3)[Gal(b1-4)GlcNAc(b1-3)Gal(b1-4)GlcNAc(b1-2)Man(a1-6)]Man(b1-4)GlcNAc(b1-4)GlcNAc
Outline: as §1

[26] = target: Gal(b1-4)GlcNAc(b1-3)Gal(b1-4)GlcNAc(b1-2)Man(a1-3)[Gal(b1-4)GlcNAc(b1-3)Gal(b1-4)GlcNAc(b1-2)Man(a1-6)]Man(b1-4)GlcNAc(b1-4)[Fuc(a1-6)]GlcNAc
Outline: as §1

B1: Thrombomodulin Extracellular (Mus musculus), P15306 (protein)
chain: MLGIFFLGVLAPASLGLSALAKLQPTGSQCVEHECFALFQGPATFLDASQACQRLQGHLMTVRSSVAADVISLLLSQSSMDLGPWIGLQLPQGCDDPVHLGPLRGFQWVTGDNHTSYSRWARPNDQTAPLCGPLCVTVSTATEAAPGEPAWEEKPCETETQGFLCEFYFTASCRPLTVNTRDPEAAHISSTYNTPFGVSGADFQTLPVGSSAAVEPLGLELVCRAPPGTSEGHWAWEATGAWNCSVENGGCEYLCNRSTNEPRCLCPRDMDLQADGRSCARPVVQSCNELCEHFCVSNAEVPGSYSCMCETGYQLAADGHRCEDVDDCKQGPNPCPQLCVNTKGGFECFCYDGYELVDGECVELLDPCFGSNCEFQCQPVSPTDYRCICAPGFAPKPDEPHKCEMFCNETSCPADCDPNSPTVCECPEGFILDEGSVCTDIDECSQGECFTSECRNFPGSYECICGPDTALAGQISKDCDPIPVREDTKEEEGSGEPPVSPTPGSPTGPPSARPVHSGVLIGISIASLSLVVALLALLCHLRKKQGAARAELEYKCASSAKEVVLQHVRTDRTLQKF
- glycan array binding signal (z-score) (Gal(b1-4)Glc): 0.133
- glycan array binding signal (z-score) (Gal(b1-4)Glc6S): 0.375
- glycan array binding signal (z-score) (Gal(b1-4)GlcNAc): 0.069
- glycan array binding signal (z-score) [1]: -1.19
- glycan array binding signal (z-score) (Gal(b1-4)GlcNAc(b1-2)Man): 0.594
- glycan array binding signal (z-score) [2]: -1.32
- glycan array binding signal (z-score) [3]: -0.43
- glycan array binding signal (z-score) [4]: 1.71
- glycan array binding signal (z-score) [5]: -0.094
- glycan array binding signal (z-score) [6]: -0.225
- glycan array binding signal (z-score) [7]: -1.49
- glycan array binding signal (z-score) [8]: -0.475
- glycan array binding signal (z-score) [9]: -0.973
- glycan array binding signal (z-score) [10]: -0.7
- glycan array binding signal (z-score) [11]: 0.428
- glycan array binding signal (z-score) [12]: -0.694
- glycan array binding signal (z-score) [13]: 1.13
- glycan array binding signal (z-score) [14]: -0.359
- glycan array binding signal (z-score) [15]: 0.453
- glycan array binding signal (z-score) [16]: -1.17
- glycan array binding signal (z-score) [17]: 0.028
- glycan array binding signal (z-score) [18]: -0.135
- glycan array binding signal (z-score) [19]: -0.69
- glycan array binding signal (z-score) [20]: -0.329
- glycan array binding signal (z-score) [21]: 0.085
- glycan array binding signal (z-score) [22]: -2.24
- glycan array binding signal (z-score) [23]: -0.215
- glycan array binding signal (z-score) [24]: -0.512
- glycan array binding signal (z-score) [25]: 0.231
- glycan array binding signal (z-score) [26]: 0.97
